In article PMC10170298:
Results are given in words; binding and its absence hold for the method and conditions named. Some binding calls cover weakened binding; strength is not graded here. Where a sequence is shown, tags or fusion partners need not be part of it.

T1: retinoic acid inducible gene-I (RIG-I), FLAG-tagged, purified recombinant, O95786
T1 chain: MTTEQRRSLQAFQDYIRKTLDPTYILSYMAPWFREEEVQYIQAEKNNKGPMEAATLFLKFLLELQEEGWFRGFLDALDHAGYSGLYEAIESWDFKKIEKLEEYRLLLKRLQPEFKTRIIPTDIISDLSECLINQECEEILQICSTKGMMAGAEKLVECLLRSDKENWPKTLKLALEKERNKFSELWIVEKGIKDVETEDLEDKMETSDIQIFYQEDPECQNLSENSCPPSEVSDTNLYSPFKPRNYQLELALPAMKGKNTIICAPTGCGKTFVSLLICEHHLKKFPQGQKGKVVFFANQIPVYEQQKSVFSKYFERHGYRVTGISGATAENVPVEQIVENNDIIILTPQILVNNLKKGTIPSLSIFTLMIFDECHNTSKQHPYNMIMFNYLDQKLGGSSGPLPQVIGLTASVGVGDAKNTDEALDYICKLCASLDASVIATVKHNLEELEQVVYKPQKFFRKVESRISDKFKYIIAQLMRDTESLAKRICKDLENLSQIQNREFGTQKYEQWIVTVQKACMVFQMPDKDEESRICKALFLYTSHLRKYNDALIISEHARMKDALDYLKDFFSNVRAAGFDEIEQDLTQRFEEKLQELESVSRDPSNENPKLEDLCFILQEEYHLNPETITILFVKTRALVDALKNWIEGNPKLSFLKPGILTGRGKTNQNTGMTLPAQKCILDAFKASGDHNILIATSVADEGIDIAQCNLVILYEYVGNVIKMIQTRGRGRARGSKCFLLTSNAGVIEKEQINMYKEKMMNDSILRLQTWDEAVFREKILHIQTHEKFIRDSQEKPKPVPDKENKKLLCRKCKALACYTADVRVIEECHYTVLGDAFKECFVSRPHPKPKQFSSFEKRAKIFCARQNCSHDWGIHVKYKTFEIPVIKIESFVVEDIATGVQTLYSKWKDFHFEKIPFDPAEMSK

T2: melanoma differentiation associated-5 (MDA5), FLAG-tagged, purified recombinant, Q9BYX4
T2 chain: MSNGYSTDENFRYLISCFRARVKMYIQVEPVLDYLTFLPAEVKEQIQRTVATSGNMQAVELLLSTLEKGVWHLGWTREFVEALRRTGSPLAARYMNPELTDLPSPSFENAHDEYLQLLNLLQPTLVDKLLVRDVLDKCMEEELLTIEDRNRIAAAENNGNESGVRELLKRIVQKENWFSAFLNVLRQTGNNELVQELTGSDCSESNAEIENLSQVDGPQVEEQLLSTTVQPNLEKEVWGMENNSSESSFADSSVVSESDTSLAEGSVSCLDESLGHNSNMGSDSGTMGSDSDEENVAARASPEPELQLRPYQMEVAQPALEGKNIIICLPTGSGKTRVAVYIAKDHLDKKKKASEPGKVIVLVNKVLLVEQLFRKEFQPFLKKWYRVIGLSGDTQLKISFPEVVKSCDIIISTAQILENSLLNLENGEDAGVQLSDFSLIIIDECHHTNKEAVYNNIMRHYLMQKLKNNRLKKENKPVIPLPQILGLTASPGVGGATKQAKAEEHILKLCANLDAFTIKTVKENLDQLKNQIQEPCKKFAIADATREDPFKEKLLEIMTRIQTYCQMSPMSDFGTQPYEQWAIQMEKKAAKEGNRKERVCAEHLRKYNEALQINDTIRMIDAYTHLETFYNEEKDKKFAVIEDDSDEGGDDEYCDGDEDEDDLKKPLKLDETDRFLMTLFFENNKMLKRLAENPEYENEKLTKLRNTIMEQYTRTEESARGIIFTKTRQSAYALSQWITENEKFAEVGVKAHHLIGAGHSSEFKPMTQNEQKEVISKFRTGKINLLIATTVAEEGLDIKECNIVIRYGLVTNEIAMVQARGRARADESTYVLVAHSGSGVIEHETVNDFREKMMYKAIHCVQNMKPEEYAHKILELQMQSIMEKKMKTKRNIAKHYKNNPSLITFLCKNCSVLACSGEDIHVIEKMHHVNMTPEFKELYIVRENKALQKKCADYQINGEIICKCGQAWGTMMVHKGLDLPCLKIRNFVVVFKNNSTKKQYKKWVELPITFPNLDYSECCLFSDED

T3: laboratory of genetics and physiology 2 (LGP2), FLAG-tagged, purified recombinant (UniProt Q96C10)
T3 sequence: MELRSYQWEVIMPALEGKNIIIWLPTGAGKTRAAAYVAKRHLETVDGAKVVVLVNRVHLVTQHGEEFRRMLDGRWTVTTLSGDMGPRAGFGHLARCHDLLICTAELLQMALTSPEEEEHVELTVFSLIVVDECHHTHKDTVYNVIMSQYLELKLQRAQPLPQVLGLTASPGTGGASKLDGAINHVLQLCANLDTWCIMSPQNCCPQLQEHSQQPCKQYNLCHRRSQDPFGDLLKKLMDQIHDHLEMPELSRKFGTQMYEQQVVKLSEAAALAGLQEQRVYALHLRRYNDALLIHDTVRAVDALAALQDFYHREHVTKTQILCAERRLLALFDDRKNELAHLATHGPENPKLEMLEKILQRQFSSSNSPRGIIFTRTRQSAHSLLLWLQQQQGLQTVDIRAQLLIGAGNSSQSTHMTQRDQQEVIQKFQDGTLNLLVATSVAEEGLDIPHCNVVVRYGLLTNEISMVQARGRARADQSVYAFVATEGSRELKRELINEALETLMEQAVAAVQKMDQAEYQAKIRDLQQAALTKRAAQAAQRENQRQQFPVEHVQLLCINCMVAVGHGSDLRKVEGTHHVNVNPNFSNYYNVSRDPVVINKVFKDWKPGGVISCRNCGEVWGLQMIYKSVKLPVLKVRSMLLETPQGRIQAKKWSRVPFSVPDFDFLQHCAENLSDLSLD


What was measured:
Experiment in all cases: co-IP; purified recombinant FLAG-RLR (150 ng) incubated with WT or SD TRBP (50 ng) without RNA in whole-cell extract buffer (50 mM Tris-HCl pH 8.0, 280 mM NaCl, 0.5% NP-40, 0.2 mM EGTA, 2 mM EDTA, 1 mM DTT, 1 mM MgCl2); FLAG-RLR isolated on FLAG agarose beads; western blot with FLAG and TRBP antibodies; TRBP without RLR as negative control; both purified
[1] = molecular target: T1, retinoic acid inducible gene-I (RIG-I), …; conditions: remark: other sources report otherwise
[2] = molecular target: T2, melanoma differentiation associated-5 …; conditions: remark: other sources report otherwise
[3] = molecular target: T3, laboratory of genetics and physiology 2 (LGP2), FLAG-tagged, purified recombinant

Row | binding [1] | binding [2] | binding [3] | Binder
1 | binds | binds | – | transactivation response RNA-binding protein (TRBP), recombinant, nonphosphorylated wild type, Q15633 1-366 (protein) MSEEEQGSGTTTGCGLPSIEQMLAANPGKTPISLLQEYGTRIGKTPVYDLLKAEGQAHQPNFTFRVTVGDTSCTGQGPSKKAAKHKAAEVALKHLKGGSMLEPALEDSSSFSPLDSSLPEDIPVFTAAAAATPVPSVVLTRSPPMELQPPVSPQQSECNPVGALQELVVQKGWRLPEYTVTQESGPAHRKEFTMTCRVERFIEIGSGTSKKLAKRNAAAKMLLRVHTVPLDARDGNEVEPDDDHFSIGVGSRLDGLRNRGPGCTWDSLRNSVGEKILSLRSCSLGSLGALGPACCRVLSELSEEQAFHVSYLDIEELSLSGLCQCLVELSTQPATVCHGSATTREAARGEAARRALQYLKIMAGSK
2 | – | – | binds | transactivation response RNA-binding protein (TRBP), recombinant, nonphosphorylated wild type (protein, UniProt Q15633 1-366) MSEEEQGSGTTTGCGLPSIEQMLAANPGKTPISLLQEYGTRIGKTPVYDLLKAEGQAHQPNFTFRVTVGDTSCTGQGPSKKAAKHKAAEVALKHLKGGSMLEPALEDSSSFSPLDSSLPEDIPVFTAAAAATPVPSVVLTRSPPMELQPPVSPQQSECNPVGALQELVVQKGWRLPEYTVTQESGPAHRKEFTMTCRVERFIEIGSGTSKKLAKRNAAAKMLLRVHTVPLDARDGNEVEPDDDHFSIGVGSRLDGLRNRGPGCTWDSLRNSVGEKILSLRSCSLGSLGALGPACCRVLSELSEEQAFHVSYLDIEELSLSGLCQCLVELSTQPATVCHGSATTREAARGEAARRALQYLKIMAGSK
